Record: PubChem BioAssay AID1117269 (University of Michigan, 2014)
Test: 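Which kinase knockdowns increase BTR reporter light after TGF-beta stimulation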 (primary screen). Cells: human A549 lung cancer and 1833 breast cancer (MDA-MB-231-derived) cell lines carrying a stable BTR luciferase reporter. Reagents: siRNA pool against human genes. Timing: 72 h after transfection, then 1 h TGF-beta before the read. Conditions: TGF-beta 10 ng/mL added one hour before luciferin and read-out. Measured: 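BTR reporter bioluminescence as fold change relative to non-targeting siRNA, averaging triplicates per line; knockdown for 72 h, then TGF-beta at 10 ng/mL 1 h prior to reading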. Scale: fold over scrambled siRNA, A549 and fold over scrambled siRNA, 1833: higher = more reporter light, weaker TGF-beta receptor signalling. Call rule: 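Hit in either line counts as active; per-line hits lie above an upper limit from quartiles of averaged log fold values, in plate and screen-wide analyses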. Meaning of the calls: active = hit in at least one line; inactive = hit in neither line.
Shown is an unselected part of 714 reagents tested. 49 of them (6.9%) count as active. 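Active means a hit in at least one line; per-line hit columns show which; some siRNA pools appear more than once.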 Reagent sequences are not shown. The record does not give: the amount of reagent.

Gene | fold over scrambled siRNA, A549 | fold over scrambled siRNA, 1833 | hit in A549 | hit in 1833 | Call
CHUK | 3.36 | 3 | not a hit in A549 | not a hit in 1833 | inactive
CSF1R (colony stimulating factor 1 receptor) | 1.36 | 4 | not a hit in A549 | not a hit in 1833 | inactive
MAPK13 (mitogen-activated protein kinase 13) | 2 | 2.34 | not a hit in A549 | not a hit in 1833 | inactive
NRBP2 (nuclear receptor binding protein 2) | 6.03 | 3.31 | hit in A549 | not a hit in 1833 | active
STK4 (serine/threonine kinase 4) | 5.76 | 4.16 | hit in A549 | not a hit in 1833 | active
CDK2 (cyclin dependent kinase 2) | 1.33 | 3.52 | not a hit in A549 | not a hit in 1833 | inactive
GRK4 (G protein-coupled receptor kinase 4) | 1.94 | 2.99 | not a hit in A549 | not a hit in 1833 | inactive
PIKFYVE (phosphoinositide kinase, FYVE-type zinc finger containing) | 1.85 | 3.33 | not a hit in A549 | not a hit in 1833 | inactive
NUAK2 (NUAK family kinase 2) | 1.24 | 1.74 | not a hit in A549 | not a hit in 1833 | inactive
NEK1 (NIMA related kinase 1) | 3.14 | 6.38 | not a hit in A549 | not a hit in 1833 | inactive
PRKAB2 (protein kinase AMP-activated non-catalytic subunit beta 2) | 1.38 | 1.16 | not a hit in A549 | not a hit in 1833 | inactive
CDK20 (cyclin dependent kinase 20) | 2.14 | 6.14 | not a hit in A549 | not a hit in 1833 | inactive
SIK1 (salt inducible kinase 1) | 4.41 | 2.33 | not a hit in A549 | not a hit in 1833 | inactive
FGFR4 (fibroblast growth factor receptor 4) | 1.48 | 6.25 | not a hit in A549 | not a hit in 1833 | inactive
NTRK2 (neurotrophic receptor tyrosine kinase 2) | 1.1 | 2.95 | not a hit in A549 | not a hit in 1833 | inactive
KCNH8 (potassium voltage-gated channel subfamily H member 8) | 3.24 | 6.1 | not a hit in A549 | not a hit in 1833 | inactive
PIK3CB | 0.905 | 2 | not a hit in A549 | not a hit in 1833 | inactive
PIP5K1C (phosphatidylinositol-4-phosphate 5-kinase type 1 gamma) | 1.71 | 2.94 | not a hit in A549 | not a hit in 1833 | inactive
NLK (nemo like kinase) | 0.944 | 2.87 | not a hit in A549 | not a hit in 1833 | inactive
PFKFB3 (6-phosphofructo-2-kinase/fructose-2,6-biphosphatase 3) | 0.804 | 1.47 | not a hit in A549 | not a hit in 1833 | inactive
ACVR1 (activin A receptor type 1) | 1.03 | 2.47 | not a hit in A549 | not a hit in 1833 | inactive
EPHA1 (EPH receptor A1) | 2.9 | 5.6 | not a hit in A549 | not a hit in 1833 | inactive
PLK2 (polo like kinase 2) | 2.95 | 5.7 | not a hit in A549 | not a hit in 1833 | inactive
TTBK2 (tau tubulin kinase 2) | 1.78 | 4.33 | not a hit in A549 | not a hit in 1833 | inactive
N4BP2 (NEDD4 binding protein 2) | 2.62 | 5.67 | not a hit in A549 | not a hit in 1833 | inactive
PEAK1 (pseudopodium enriched atypical kinase 1) | 0.648 | 2.46 | not a hit in A549 | not a hit in 1833 | inactive
PRKCH (protein kinase C eta) | 4.04 | 3.81 | not a hit in A549 | not a hit in 1833 | inactive
CSNK1G1 (casein kinase 1 gamma 1) | 1.05 | 2.33 | not a hit in A549 | not a hit in 1833 | inactive

8 entries from above, reduced to “fold over scrambled siRNA, A549”:
NRBP2 (nuclear receptor binding protein 2)	6.03
STK4 (serine/threonine kinase 4)	5.76
CDK2 (cyclin dependent kinase 2)	1.33
GRK4 (G protein-coupled receptor kinase 4)	1.94
PIKFYVE (phosphoinositide kinase, FYVE-type zinc finger containing)	1.85
NUAK2 (NUAK family kinase 2)	1.24
NEK1 (NIMA related kinase 1)	3.14
PRKAB2 (protein kinase AMP-activated non-catalytic subunit beta 2)	1.38

Next results:
Gene | fold over scrambled siRNA, A549 | fold over scrambled siRNA, 1833 | hit in A549 | hit in 1833 | Call
RPS6KB1 (ribosomal protein S6 kinase B1) | 5.58 | 22.3 | hit in A549 | hit in 1833 | active
CDADC1 (cytidine and dCMP deaminase domain containing 1) | 1.26 | 0.952 | not a hit in A549 | not a hit in 1833 | inactive
CKM (creatine kinase, M-type) | 0.571 | 2.38 | not a hit in A549 | not a hit in 1833 | inactive
MAP3K11 (mitogen-activated protein kinase kinase kinase 11) | 1.59 | 3.19 | not a hit in A549 | not a hit in 1833 | inactive
CMPK1 (cytidine/uridine monophosphate kinase 1) | 1.87 | 2.11 | not a hit in A549 | not a hit in 1833 | inactive
NTRK1 (neurotrophic receptor tyrosine kinase 1) | 0.905 | 1.05 | not a hit in A549 | not a hit in 1833 | inactive
NME7 (NME/NM23 family member 7) | 2.19 | 4.42 | not a hit in A549 | not a hit in 1833 | inactive
WHR1 (winged helix repair factor 1) | 1.33 | 5.38 | not a hit in A549 | not a hit in 1833 | inactive
PLK4 (polo like kinase 4) | 1.56 | 2.48 | not a hit in A549 | not a hit in 1833 | inactive
PAK6 (p21 (RAC1) activated kinase 6) | 2.04 | 4.57 | not a hit in A549 | not a hit in 1833 | inactive
MPP1 (MAGUK p55 scaffold protein 1) | 5.15 | 2.81 | not a hit in A549 | not a hit in 1833 | inactive
CLK4 (CDC like kinase 4) | 1.56 | 1.22 | not a hit in A549 | not a hit in 1833 | inactive
PRKAA1 (protein kinase AMP-activated catalytic subunit alpha 1) | 6.83 | 2.93 | hit in A549 | not a hit in 1833 | active
RYK (receptor like tyrosine kinase) | 1.83 | 2.47 | not a hit in A549 | not a hit in 1833 | inactive
CIB2 (calcium and integrin binding family member 2) | 0.553 | 1.87 | not a hit in A549 | not a hit in 1833 | inactive
ETNK2 (ethanolamine kinase 2) | 1.02 | 7.19 | not a hit in A549 | not a hit in 1833 | inactive
CDK12 (cyclin dependent kinase 12) | 1.17 | 8.11 | not a hit in A549 | not a hit in 1833 | inactive
GK (glycerol kinase) | 1.49 | 5.73 | not a hit in A549 | not a hit in 1833 | inactive
CSNK1D (casein kinase 1 delta) | 2.08 | 2.77 | not a hit in A549 | not a hit in 1833 | inactive
PGK2 (phosphoglycerate kinase 2) | 0.979 | 1.73 | not a hit in A549 | not a hit in 1833 | inactive
MAP2K2 (mitogen-activated protein kinase kinase 2) | 1.86 | 2.95 | not a hit in A549 | not a hit in 1833 | inactive
FGFR1 (fibroblast growth factor receptor 1) | 3.07 | 1.48 | not a hit in A549 | not a hit in 1833 | inactive
NEK5 (NIMA related kinase 5) | 5.14 | 4.79 | not a hit in A549 | not a hit in 1833 | inactive
LCK (LCK proto-oncogene, Src family tyrosine kinase) | 0.472 | 3.27 | not a hit in A549 | not a hit in 1833 | inactive
STK36 (serine/threonine kinase 36) | 0.86 | 1.8 | not a hit in A549 | not a hit in 1833 | inactive
PRKACG (protein kinase cAMP-activated catalytic subunit gamma) | 2.05 | 5.48 | not a hit in A549 | not a hit in 1833 | inactive
CAMK1D (calcium/calmodulin dependent protein kinase ID) | 1.86 | 1.34 | not a hit in A549 | not a hit in 1833 | inactive
PI4K2B (phosphatidylinositol 4-kinase type 2 beta) | 0.624 | 1.66 | not a hit in A549 | not a hit in 1833 | inactive
CDK5R1 (cyclin dependent kinase 5 regulatory subunit 1) | 0.444 | 1.37 | not a hit in A549 | not a hit in 1833 | inactive
